# Values quoted from earlier work in patent US20090239868A1 (priority 2007, published 2009).
# For at least one compound, name, drawing or mass did not settle the structure.
# Test system: PAI-1 production induced by TGF-β and TNF-α
# Settings: Comp. Hepatol. 2007; Pathobiology 2004; cited from earlier work
compound,measurement,value
C[C@@H]1C[C@H]2[C@@H]3CCC4=CC(=O)C=C[C@]4(C)[C@@]3(F)[C@@H](O)C[C@]2(C)[C@@]1(O)C(=O)CO [dexamethasone],PAI-1 production induced by TGF-β and TNF-α,increased
